The values below come from PubChem BioAssay AID338 (DTP/NCI, 2004).

The list does not hold the whole screen: it gathers some chemical classes. Not every dose and run of a compound is shown. T/C: endpoint of the treated group in % of that of the vehicle group. Some doses have a count of surviving animals in place of a T/C: the source files T/C as zero there, which appears to mark a toxic dose or a test without result, not a measured value. Some doses without a T/C left all or most animals alive at the check, yet need not have been tolerated: survival well below the control is almost never listed, so the zero probably covers shortened survival too. Counts of survivors are from the toxicity check (mostly the fifth day) where no day follows; animals may have died later. Schedule codes are those of the source, taken here to give the interval after Q, in days (D) or hours (H), and the number of doses after X. Some doses were run more than once; the values are given in rising order. For survival time, this PubChem deposit counts one and a half times the control or more as active, and values a quarter to a half above the control carry no call in these data; other NCI protocols may use other cut-offs.

For this experiment, the system named is BDF1 mice, P388 leukemia (terephthalanilide-resistant), survival T/C. Description: NCI In Vivo Anticancer Drug Screen. Data for tumor model P388 Leukemia resistant to A Terephthalanilide; NSC 38280 (intraperitoneal) in B6D2F1 (BDF1) mice. The note with it: T/C endpoint: median survival time, schedule: Q01DX010 (ip), vehicle: saline, higher T/C = longer survival. How it is done:
The antitumor activity of compounds was measured in mice bearing transplantable tumors. Survival or tumor size were measured and the results are expressed as the measurement made in the treated group (T) divided by the measurement made in the vehicle treated control group (C). The tumor model used in this assay is P388 Leukemia resistant to A Terephthalanilide; NSC 38280 (intraperitoneal) in B6D2F1 (BDF1) mice

With `CN(N=O)C(=N)N[N+](=O)[O-]`, the T/C is 120 and 125 % of control (dose: 8.0 mg/kg/injection); 135 % of control (dose: 16.0 mg/kg/injection). Moreover, the survivor count was 6 of 6 (dose: 16.0 mg/kg/injection); 6 of 6 (dose: 32.0 mg/kg/injection); 3 of 6 and 5 of 6 (dose: 64.0 mg/kg/injection).
As for `NC1CCCCC1.O=P(O)(N(CCCl)CCCl)N1CC1`, the T/C is, setting by setting: (dose: 1.25 mg/kg/injection) 109 % of control; (dose: 2.5 mg/kg/injection) 100 and 113 % of control; (dose: 5.0 mg/kg/injection) 100 and 109 % of control; (dose: 10.0 mg/kg/injection) 122 and 136 % of control; (dose: 20.0 mg/kg/injection) 100 % of control.
